Laboratory results as given in ChEMBL document CHEMBL2202962, “The discovery of a novel series of glucokinase activators based on a pyrazolopyrimidine scaffold” (Bioorg Med Chem Lett, 2012).

By UniProt entry, the sequences of proteins in these tests, tags left out. Where a name states a change or a piece, a line headed by the entry shows the natural chain unless it says otherwise.
UniProt Q12809: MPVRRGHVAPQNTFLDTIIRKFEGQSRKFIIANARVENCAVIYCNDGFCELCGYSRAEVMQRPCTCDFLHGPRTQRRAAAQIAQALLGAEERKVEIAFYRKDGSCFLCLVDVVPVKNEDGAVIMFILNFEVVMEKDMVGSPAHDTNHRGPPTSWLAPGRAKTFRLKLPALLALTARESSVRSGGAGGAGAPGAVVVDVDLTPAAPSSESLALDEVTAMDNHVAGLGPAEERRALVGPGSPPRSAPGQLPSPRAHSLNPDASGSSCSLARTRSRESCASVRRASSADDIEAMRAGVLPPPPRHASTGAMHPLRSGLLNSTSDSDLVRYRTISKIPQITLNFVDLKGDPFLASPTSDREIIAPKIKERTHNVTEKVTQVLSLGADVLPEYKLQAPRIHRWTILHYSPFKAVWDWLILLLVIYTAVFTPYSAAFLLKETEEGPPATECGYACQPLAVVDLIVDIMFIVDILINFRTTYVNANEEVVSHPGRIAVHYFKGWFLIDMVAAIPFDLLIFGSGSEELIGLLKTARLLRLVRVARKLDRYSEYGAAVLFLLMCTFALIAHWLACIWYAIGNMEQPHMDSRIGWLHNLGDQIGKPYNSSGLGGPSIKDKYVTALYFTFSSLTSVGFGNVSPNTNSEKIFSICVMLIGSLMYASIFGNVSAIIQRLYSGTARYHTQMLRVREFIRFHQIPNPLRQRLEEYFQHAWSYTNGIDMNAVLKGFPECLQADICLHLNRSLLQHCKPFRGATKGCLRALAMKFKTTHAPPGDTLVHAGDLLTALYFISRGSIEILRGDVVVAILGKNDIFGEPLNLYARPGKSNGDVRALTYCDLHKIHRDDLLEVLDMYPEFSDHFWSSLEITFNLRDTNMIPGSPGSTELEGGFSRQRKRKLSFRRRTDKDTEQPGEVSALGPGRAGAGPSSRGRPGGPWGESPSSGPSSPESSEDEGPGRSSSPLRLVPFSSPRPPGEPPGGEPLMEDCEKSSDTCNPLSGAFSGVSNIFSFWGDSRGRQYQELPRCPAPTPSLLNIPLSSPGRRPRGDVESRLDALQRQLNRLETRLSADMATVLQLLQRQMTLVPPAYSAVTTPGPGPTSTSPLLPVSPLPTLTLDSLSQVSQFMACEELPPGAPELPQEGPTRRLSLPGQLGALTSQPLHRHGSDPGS

Assays:
[1] = Octanol-water partition coefficient, log D of the compound by HPLC analysis
[2] = biological target: Voltage-gated inwardly rectifying potassium channel KCNH2 (Homo sapiens, UniProt Q12809)

Row | Structure (SMILES) | logD [1] | IC50 [2]
1 | COCCC(Oc1ncnc2c1cnn2-c1ccccc1C(F)(F)F)C(=O)Nc1ccc(C)cn1 (racemic) | 4.4 | –
2 | COCC[C@H](Oc1ncnc2c1cnn2-c1ccccc1C(F)(F)F)C(=O)Nc1ccc(C)cn1 | 4.3 | 26 µM
